Counter-ions that a name gives are not always drawn. Some of the results follow. This data set is noisy: repeats of one test often differ as much as different tests do.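 A first-round screen of about ten thousand compounds sought those raising reporter output, using human embryonic kidney cells briefly transfected with a plasmid carrying a Renilla luciferase gene driven by the HSV-TK promoter.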

Consider 44 molecules from the supplement of paper PMC7024190.

In the assay the test system is HEK 293FT. In words: log relative Renilla luciferase luminescence (reporter expression vs reference, reference not stated) (log (base not stated)); higher = higher recombinant reporter expression. As to conditions: 10 µM; time after transfection 48 h.
On to `FCOC(C(F)(F)F)C(F)(F)F` [sevoflurane], for which the log is 0.109.

In the case of `CCCCCC1C(=O)CCC1CC(=O)OC` (centres undefined) [dihydrojasmonic acid, methyl ester], the log came out at 0.0513.

`Nc1ccc(S(=O)(=O)NC(=O)c2ccccc2)cc1` [sulfabenzamide]: the log was -0.0331.

As to `C[N+](C)(C)CCOP(=O)(O)OP(=O)([O-])OC[C@H]1O[C@@H](n2ccc(N)nc2=O)[C@H](O)[C@@H]1O` [citicoline], the log worked out at 0.00988.

Take `CC(C)c1nc(N(C)S(C)(=O)=O)nc(-c2ccc(F)cc2)c1/C=C/[C@@H](O)C[C@@H](O)CC(=O)O` [rosuvastatin calcium]: the log is 0.0409.

As to `C=C(CC)C(=O)c1ccc(OCC(=O)O)c(Cl)c1Cl` [ethacrynic acid], the log is -0.00179.

For `C=C(C)[C@@H]1CC[C@]2(C(=O)O)CC[C@]3(C)[C@H](CC[C@@H]4[C@@]5(C)CC[C@H](O)C(C)(C)[C@@H]5CC[C@]43C)[C@@H]12` [betulinic acid], the log was found to be 0.0256.

Take `Oc1ccc2c(c1)OC[C@]1(O)Cc3cc(O)c(O)cc3[C@H]21` [brazilin]: the log is -0.0704.

For `C[Se]CC[C@H](N)C(=O)O` [selenomethionine], the log was found to be 0.0703.

Turning to `C1N2CN3CN1CN(C2)C3` [methenamine], the log worked out at 0.0155.

`O=C(O)C1=C[C@@H](O)[C@@H](O)[C@H](O)C1` [shikimic acid]: the log worked out at 0.15.

With `CCCCCN(C)CCC(O)(P(=O)(O)O)P(=O)(O)O` [ibandronate sodium], the log is -0.024.

On to `Cc1ncc([N+](=O)[O-])n1C` [dimetridazole], for which the log came out at 0.0703.

For the molecule `N[C@@H](CC(=O)O)C(=O)O` [aspartic acid (l)], the log was 0.131.

In the case of `C[C@@H](O)[C@H]1C(=O)N2C(C(=O)O)=C(SCCNC=N)C[C@H]12` [imipenem], the log was found to be 0.0961.

Consider `c1ccc2c(c1)CCCC2C1=NCCN1` (centres undefined) [tetrahydrozoline hydrochloride], for which the log was determined as 0.000294.

Regarding `COc1ccc(-c2coc3cc(O)ccc3c2=O)cc1` [formononetin], the log was 0.108.

With `Oc1c(Br)cc(Br)c2cccnc12` [broxyquinoline], the log is -1.04.

With `NC(=O)c1ccccc1O` [salicylamide], the log was determined as 0.119.

Take `COc1cc2c(cc1OC)C1C(=O)c3c(O)cc4c(c3OC1CO2)C=CC(C)(C)O4` (stereo not drawn) [alpha-toxicarol (dl)]: the log was -0.601.

In the case of `CCOC(=O)N1CCC(=C2c3ccc(Cl)cc3CCc3cccnc32)CC1` [loratadine], the log came to 0.142.

For `Nc1nc(F)nc2c1ncn2[C@@H]1O[C@H](COP(=O)(O)O)[C@@H](O)[C@@H]1O` [fludarabine phosphate], the log was -0.0337.

Regarding `NC(=O)N[C@@H](CCC(=O)O)C(=O)O` [carglumic acid], the log was found to be 0.0257.

For the molecule `CC(=O)[C@@]12O[C@](C)(c3ccccc3)O[C@@H]1C[C@H]1[C@@H]3CCC4=CC(=O)CC[C@]4(C)[C@H]3CC[C@@]12C` [algestone acetophenide], the log is -0.0732.

As for `COCCCC/C(=N\OCCN)c1ccc(C(F)(F)F)cc1` [fluvoxamine maleate], the log turned out to be 0.195.

`COC(=O)[C@H](c1ccccc1Cl)N1CCc2sccc2C1` [clopidogrel sulfate]: the log was determined as 0.124.

In the case of `C[C@]12CCC(=O)C=C1CC[C@@H]1[C@@H]2C(=O)C[C@@]2(C)[C@H]1CC[C@]2(O)C(=O)CO` [cortisone], the log amounted to 0.0499.

Turning to `C[C@H](N[C@@H](CCc1ccccc1)C(=O)O)C(=O)N1CCC[C@H]1C(=O)O` [enalaprilat], the log is -0.0373.

On to `COc1cc(OC)c2c(=O)c(OC)c(-c3ccccc3)oc2c1` [galangin trimethyl ether], for which the log was 0.26.

Take `CN(C)[C@@H]1C(O)=C(C(N)=O)C(=O)[C@@]2(O)C(O)=C3C(=O)c4c(O)cccc4[C@@](C)(O)[C@H]3C[C@@H]12` [tetracycline hydrochloride]: the log stood at 0.0856.

For `COc1cc2occ(-c3ccc(OC)c(OC)c3OC)c(=O)c2cc1OC` [6,7,2',3',4'-pentamethoxyisoflavone], the log was found to be 0.0453.

Consider `O=C1c2c(O)cc(CO)cc2C(OC2OC(CO)C(O)C(O)C2O)c2cccc(OC3OC(CO)C(O)C(O)C3O)c21` (centres undefined) [casanthranol [cascaroside a shown]], for which the log is -0.122.

Regarding `Cc1ccc(N(CC2=NCCN2)c2cccc(O)c2)cc1` [phentolamine hydrochloride], the log was -0.137.

Take `O=C(O)c1ccccc1-c1c2cc(I)c(=O)c(I)c-2oc2c(I)c(O)c(I)cc12` [erythrosine sodium]: the log is -0.0105.

For `CCc1ccc(CCOc2ccc(CC3SC(=O)NC3=O)cc2)nc1` (centres undefined) [pioglitazone hydrochloride], the log is -0.0193.

Take `Cc1c(Cl)cccc1Nc1ccccc1C(=O)O` [tolfenamic acid]: the log stood at 0.0409.

As for `CCCSc1ccc2[nH]c(NC(=O)OC)nc2c1` [albendazole], the log was -0.231.

For the molecule `C[C@@H]1CC[C@H]2C(C)(C)[C@H]3C[C@@]12CC[C@@]3(C)O` [cedrol], the log was -0.0245.

For the molecule `CC(=O)C1=C(O)C=C2Oc3c(C(C)=O)c(O)c(C)c(O)c3C2(C)C1=O` (stereo in doubt) [usnic acid], the log worked out at 0.115.

Turning to `CO[C@H]1/C=C/O[C@@]2(C)Oc3c(C)c(O)c4c(O)c(c(/C=N/N5CCN(C)CC5)c(O)c4c3C2=O)NC(=O)/C(C)=C\C=C\[C@H](C)[C@H](O)[C@@H](C)[C@@H](O)[C@@H](C)[C@H](OC(C)=O)[C@@H]1C` [rifampin], the log was -0.00201.

With `COc1cc(C)c(C(=O)O)c(O)c1` [everninic acid], the log turned out to be 0.0459.

With `CC(C(=O)O)c1ccc(CC2CCCC2=O)cc1` (centres undefined) [loxoprofen], the log stood at 0.097.

As for `CC[C@H]1OC(=O)[C@H](C)[C@@H](O[C@H]2C[C@@](C)(OC)[C@@H](O)[C@H](C)O2)[C@H](C)[C@@H](O[C@@H]2O[C@H](C)C[C@H](N(C)C)[C@H]2O)[C@](C)(O)C[C@@H](C)C(=O)[C@H](C)[C@@H](O)[C@]1(C)O` [erythromycin stearate], the log stood at 0.0547.

Turning to `CC[C@H]1OC(=O)[C@H](C)[C@@H](O[C@H]2C[C@@](C)(OC)[C@@H](O)[C@H](C)O2)[C@H](C)[C@@H](O[C@@H]2O[C@H](C)C[C@H](N(C)C)[C@H]2O)[C@](C)(O)C[C@@H](C)C(=O)[C@H](C)[C@@H](O)[C@]1(C)O` [erythromycin], the log is 0.122.
